# Measurements taken from the supplement of paper PMC10849652.
# Chains of the proteins cited; added tags and fusions are not shown. Lines headed by an entry give the natural chain unless they say otherwise; changes in a name come on top.
# UniProt Q96Q11: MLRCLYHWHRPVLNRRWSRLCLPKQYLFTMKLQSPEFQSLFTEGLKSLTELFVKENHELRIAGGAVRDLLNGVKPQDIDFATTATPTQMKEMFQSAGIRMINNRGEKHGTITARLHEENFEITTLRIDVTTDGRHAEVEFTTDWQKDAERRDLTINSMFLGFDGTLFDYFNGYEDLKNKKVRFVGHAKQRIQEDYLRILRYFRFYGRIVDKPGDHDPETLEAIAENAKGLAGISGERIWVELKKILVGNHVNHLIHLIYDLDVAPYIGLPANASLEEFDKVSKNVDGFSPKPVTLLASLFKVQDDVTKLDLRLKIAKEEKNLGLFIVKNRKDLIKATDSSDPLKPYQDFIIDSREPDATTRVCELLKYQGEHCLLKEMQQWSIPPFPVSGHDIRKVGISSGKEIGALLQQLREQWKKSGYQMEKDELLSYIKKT
# UniProt P09493, whole entry, looked up: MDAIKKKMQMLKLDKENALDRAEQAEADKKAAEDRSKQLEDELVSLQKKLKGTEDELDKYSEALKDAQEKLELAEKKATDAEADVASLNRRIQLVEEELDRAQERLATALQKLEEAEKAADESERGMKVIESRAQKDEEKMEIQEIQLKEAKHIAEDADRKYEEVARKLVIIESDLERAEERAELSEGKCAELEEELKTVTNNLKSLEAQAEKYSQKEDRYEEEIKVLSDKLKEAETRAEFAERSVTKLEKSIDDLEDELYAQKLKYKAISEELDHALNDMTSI
# UniProt Q15785: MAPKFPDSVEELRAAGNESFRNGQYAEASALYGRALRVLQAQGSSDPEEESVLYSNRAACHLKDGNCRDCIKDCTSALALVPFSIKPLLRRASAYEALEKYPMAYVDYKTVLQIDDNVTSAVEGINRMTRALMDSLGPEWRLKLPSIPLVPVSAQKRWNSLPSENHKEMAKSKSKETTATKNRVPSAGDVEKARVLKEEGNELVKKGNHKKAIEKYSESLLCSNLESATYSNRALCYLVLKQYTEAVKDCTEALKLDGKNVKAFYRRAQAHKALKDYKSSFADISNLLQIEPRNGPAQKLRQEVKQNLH
# UniProt P07951, whole entry, looked up: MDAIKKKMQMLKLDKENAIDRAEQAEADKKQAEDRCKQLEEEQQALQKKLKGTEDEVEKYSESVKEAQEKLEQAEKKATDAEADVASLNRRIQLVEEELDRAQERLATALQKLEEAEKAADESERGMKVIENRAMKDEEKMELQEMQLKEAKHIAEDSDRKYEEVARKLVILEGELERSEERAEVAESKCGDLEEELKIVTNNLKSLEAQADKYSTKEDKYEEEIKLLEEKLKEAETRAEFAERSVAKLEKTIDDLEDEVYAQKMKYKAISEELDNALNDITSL
# UniProt Q7Z392: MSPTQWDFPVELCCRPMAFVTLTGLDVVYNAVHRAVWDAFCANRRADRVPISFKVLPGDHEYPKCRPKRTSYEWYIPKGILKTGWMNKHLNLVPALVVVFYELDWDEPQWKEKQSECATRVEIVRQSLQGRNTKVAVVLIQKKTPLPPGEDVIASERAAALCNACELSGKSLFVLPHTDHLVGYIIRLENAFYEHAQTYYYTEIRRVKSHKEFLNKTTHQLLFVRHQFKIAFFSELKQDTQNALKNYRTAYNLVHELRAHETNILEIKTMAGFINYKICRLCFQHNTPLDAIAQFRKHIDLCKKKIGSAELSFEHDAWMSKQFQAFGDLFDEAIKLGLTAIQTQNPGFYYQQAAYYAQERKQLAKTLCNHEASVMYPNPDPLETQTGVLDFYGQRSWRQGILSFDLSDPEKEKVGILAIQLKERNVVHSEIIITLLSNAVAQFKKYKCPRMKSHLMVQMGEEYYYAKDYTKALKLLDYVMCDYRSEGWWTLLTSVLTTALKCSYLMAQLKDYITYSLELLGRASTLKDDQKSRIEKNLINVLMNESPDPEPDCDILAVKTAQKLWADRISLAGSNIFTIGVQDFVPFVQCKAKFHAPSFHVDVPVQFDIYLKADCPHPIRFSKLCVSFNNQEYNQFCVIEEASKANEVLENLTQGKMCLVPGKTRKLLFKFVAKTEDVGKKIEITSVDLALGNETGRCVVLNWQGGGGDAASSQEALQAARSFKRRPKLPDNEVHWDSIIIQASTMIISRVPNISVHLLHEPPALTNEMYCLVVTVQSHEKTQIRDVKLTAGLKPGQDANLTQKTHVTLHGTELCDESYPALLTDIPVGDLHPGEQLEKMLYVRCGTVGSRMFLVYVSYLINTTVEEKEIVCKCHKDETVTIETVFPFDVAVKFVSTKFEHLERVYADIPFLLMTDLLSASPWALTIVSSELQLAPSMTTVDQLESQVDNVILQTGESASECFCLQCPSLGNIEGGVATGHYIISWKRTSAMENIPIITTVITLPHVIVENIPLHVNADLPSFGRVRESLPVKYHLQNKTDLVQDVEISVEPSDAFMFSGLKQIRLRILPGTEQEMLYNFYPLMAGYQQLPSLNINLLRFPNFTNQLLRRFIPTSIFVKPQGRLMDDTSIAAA
# UniProt Q969M1: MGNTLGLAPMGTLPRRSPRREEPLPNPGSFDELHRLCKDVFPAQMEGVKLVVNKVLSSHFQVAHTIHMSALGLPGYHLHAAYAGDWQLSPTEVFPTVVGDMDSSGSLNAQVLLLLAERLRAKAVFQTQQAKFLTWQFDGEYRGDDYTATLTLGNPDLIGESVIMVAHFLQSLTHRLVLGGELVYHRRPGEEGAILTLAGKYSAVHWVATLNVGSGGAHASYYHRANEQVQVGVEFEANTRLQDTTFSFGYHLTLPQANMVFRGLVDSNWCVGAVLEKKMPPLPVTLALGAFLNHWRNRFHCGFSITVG
# UniProt P11388: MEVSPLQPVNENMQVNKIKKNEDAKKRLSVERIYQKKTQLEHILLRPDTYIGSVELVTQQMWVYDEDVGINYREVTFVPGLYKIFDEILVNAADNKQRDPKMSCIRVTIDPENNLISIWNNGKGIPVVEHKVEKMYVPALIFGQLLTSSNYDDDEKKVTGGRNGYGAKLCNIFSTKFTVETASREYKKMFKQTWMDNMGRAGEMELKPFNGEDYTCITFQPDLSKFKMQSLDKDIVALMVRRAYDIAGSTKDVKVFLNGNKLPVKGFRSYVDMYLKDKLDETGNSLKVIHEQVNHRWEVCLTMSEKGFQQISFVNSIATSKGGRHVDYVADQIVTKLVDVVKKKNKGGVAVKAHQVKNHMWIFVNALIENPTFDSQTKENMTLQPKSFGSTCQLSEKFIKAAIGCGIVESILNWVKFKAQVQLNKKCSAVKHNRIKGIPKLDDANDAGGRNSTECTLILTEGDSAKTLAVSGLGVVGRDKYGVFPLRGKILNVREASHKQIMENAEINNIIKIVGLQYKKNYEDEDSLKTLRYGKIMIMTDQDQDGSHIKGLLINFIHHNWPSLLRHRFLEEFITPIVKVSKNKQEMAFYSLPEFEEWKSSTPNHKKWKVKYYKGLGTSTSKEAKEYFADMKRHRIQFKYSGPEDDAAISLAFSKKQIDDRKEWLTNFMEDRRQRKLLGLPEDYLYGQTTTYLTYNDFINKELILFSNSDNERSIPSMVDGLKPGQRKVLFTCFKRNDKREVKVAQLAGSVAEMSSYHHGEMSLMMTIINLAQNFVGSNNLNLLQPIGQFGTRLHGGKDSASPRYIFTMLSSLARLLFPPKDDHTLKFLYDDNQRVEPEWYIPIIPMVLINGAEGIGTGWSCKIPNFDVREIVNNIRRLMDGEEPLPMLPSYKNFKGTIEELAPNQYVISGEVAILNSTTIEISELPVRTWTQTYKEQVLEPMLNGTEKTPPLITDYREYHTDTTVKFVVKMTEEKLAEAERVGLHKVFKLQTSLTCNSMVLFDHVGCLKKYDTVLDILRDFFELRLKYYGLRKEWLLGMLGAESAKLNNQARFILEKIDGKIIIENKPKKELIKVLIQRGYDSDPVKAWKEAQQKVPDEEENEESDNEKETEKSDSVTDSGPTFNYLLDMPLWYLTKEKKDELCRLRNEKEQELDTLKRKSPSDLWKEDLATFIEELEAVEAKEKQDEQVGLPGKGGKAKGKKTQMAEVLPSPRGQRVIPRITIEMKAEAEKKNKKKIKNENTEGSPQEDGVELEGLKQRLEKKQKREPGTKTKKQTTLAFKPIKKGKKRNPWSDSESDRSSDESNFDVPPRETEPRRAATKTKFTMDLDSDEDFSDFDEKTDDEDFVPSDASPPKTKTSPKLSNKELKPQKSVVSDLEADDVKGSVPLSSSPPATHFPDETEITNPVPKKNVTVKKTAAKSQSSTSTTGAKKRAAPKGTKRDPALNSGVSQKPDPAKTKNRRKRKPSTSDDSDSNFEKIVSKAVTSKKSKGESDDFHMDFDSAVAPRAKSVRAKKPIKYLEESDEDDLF
# UniProt Q8WW01: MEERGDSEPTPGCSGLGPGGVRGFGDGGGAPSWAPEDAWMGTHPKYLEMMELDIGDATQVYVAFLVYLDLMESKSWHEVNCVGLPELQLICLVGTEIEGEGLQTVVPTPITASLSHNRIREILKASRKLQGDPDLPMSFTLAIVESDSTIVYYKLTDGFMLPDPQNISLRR
# UniProt Q15388, whole entry, looked up: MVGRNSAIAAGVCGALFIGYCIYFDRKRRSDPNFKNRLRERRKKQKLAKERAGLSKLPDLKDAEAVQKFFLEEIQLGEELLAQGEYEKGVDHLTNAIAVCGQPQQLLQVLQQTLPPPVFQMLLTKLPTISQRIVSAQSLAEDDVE
# UniProt P11387: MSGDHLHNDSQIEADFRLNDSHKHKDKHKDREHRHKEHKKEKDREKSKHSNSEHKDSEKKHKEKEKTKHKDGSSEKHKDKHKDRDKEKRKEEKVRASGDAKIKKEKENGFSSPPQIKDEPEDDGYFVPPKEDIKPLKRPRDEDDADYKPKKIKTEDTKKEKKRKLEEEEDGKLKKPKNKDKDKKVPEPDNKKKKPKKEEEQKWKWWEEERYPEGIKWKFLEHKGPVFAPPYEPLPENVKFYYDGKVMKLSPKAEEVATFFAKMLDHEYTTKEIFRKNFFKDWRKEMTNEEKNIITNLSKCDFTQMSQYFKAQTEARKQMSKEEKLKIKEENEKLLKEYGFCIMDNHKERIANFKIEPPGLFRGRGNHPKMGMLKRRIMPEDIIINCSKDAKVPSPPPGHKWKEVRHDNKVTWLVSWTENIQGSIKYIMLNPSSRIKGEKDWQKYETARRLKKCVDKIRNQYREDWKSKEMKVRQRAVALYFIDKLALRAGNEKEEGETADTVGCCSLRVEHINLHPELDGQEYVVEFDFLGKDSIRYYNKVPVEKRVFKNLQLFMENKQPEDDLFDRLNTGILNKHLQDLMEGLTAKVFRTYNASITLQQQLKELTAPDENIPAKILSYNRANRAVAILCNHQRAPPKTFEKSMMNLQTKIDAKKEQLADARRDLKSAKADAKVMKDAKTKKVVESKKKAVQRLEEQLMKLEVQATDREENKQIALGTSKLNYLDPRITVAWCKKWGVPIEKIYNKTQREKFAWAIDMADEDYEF
# UniProt O95985: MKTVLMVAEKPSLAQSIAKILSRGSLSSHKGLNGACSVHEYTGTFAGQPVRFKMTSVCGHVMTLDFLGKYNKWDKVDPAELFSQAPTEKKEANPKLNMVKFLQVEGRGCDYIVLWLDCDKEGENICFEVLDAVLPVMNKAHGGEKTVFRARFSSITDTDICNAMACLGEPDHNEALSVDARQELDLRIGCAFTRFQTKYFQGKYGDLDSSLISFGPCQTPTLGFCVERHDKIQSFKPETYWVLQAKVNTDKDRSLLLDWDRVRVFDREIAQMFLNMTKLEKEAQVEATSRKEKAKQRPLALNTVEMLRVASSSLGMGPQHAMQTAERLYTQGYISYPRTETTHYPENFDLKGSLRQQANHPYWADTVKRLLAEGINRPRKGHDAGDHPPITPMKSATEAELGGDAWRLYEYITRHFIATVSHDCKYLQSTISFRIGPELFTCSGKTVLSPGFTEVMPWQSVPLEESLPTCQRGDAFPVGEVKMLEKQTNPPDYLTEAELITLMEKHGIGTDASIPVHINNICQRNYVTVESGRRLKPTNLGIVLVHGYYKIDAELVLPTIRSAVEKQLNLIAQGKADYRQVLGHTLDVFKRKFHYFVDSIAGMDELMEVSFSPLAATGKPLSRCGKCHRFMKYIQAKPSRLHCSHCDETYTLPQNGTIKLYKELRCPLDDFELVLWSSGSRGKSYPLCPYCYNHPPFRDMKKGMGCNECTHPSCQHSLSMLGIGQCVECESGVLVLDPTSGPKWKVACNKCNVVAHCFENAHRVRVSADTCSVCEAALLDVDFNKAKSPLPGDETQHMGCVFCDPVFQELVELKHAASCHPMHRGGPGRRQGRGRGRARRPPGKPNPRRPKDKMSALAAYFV
# UniProt P06753, whole entry, looked up: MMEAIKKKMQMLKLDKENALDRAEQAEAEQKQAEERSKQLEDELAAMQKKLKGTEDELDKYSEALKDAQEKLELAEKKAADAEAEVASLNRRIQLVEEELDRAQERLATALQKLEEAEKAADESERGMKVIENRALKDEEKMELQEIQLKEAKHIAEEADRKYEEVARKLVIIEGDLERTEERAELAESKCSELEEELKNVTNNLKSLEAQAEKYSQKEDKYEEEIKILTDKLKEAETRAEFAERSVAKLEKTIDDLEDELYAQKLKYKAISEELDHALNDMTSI
# UniProt O43715: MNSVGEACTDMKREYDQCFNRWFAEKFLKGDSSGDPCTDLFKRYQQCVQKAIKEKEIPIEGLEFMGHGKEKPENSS
# The list shows a part of the results.
# Compound: CC1=NC(=CC=C1)C2=C(N=C(N2)C(C)(C)C)C3=CC4=NC=CN=C4C=C3
# Assay: log2 fold change, soluble protein after heating vs DMSO (PISA); higher = thermal stabilisation; K562 cells, 10 uM, 30 min; active = over 0.2 and 3.5 SD of the protein, either way, in both replicates (recomputed)
# How it was run: (§1)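 Soluble protein was defined as the supernatant after 21,000xg for 90 min. It came from K562 cells at 2×10^6 cells/mL given 10 μM compound for 30 min, heated in aliquots for 3 min across 48°C-58°C, pooled, and extracted in PBS with 0.5% NP-40 at 4°C, and was quantified by TMTpro 16plex LC-MS/MS with equalised channel sums. Thermal stability against control samples, from duplicates, is reported as log2 fold change.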
row,Target,log2 fold change
1,TPP2 (UniProt Q5VZU9),inactive: -0.091
2,TRNT1 (UniProt Q96Q11),inactive: 0.027
3,TPM1 isoform 4 (UniProt P09493),inactive: 0.058
4,TOMM34 (UniProt Q15785),inactive: 0.021
5,TPM2 (UniProt P07951),inactive: 0.212
6,TRAPPC11 (UniProt Q7Z392),inactive: -0.053
7,TOMM40L (UniProt Q969M1),inactive: -0.012
8,TOP2A isoform 4 (UniProt P11388),inactive: -0.094
9,TPM1 (UniProt H7BYY1),inactive: -0.023
10,TSEN15 (UniProt Q8WW01),inactive: 0.102

# Compound: CCCCN(Cc1ccc(C(=O)NO)cc1)C(=O)Nc1ccccc1 [Nexturastat A]
# Assay: as above
# How it was run: as §1
row,Target,log2 fold change
1,TOMM20 (UniProt Q15388),inactive: 0.019
2,TSEN34 (UniProt Q9BSV6),inactive: -0.006
3,TSC22D4 (UniProt Q9Y3Q8),inactive: 0.027
4,TOP1 (UniProt P11387),inactive: 0.158
5,TRIP13 (UniProt Q15645),inactive: -0.078
6,TOP3B (UniProt O95985),inactive: 0.272
7,TRIM4 (UniProt Q9C037),inactive: 0.1
8,TPM3 isoform 4 (UniProt P06753),inactive: -0.174
9,TPP2 (UniProt P29144),inactive: 0.244
10,TOMM40 (UniProt O96008),inactive: -0.13
11,TRAPPC8 (UniProt Q9Y2L5),inactive: 0.024
12,TOR2A (UniProt Q5JU69),inactive: -0.076
13,TRIAP1 (UniProt O43715),inactive: -0.018
14,TRIP11 (UniProt Q15643),inactive: -0.012
15,TRIP6 (UniProt Q15654),inactive: -0.054
16,TP53RK (UniProt Q96S44),inactive: -0.069
17,TOR1AIP2 (UniProt Q8NFQ8),inactive: -0.129

row,Target,log2 fold change
1,TOE1 (UniProt Q96GM8),inactive: 0.078
2,"TPM4, A0A2R8Y5V9",inactive: -0.047
3,TRIM11 (UniProt Q96F44),inactive: -0.004
4,TRMT6 (UniProt Q9UJA5),inactive: 0.172
5,TOM1 isoform 2 (UniProt O60784),inactive: -0.028
6,TP53I3 (UniProt Q53FA7),inactive: 0.121
7,TPP2 (UniProt Q5VZU9),inactive: 0.27
8,TRNT1 (UniProt Q96Q11),inactive: -0.016
9,TPM1 isoform 4 (UniProt P09493),inactive: -0.076
10,TOMM34 (UniProt Q15785),inactive: 0.018
11,TPM2 (UniProt P07951),inactive: -0.138
12,TRAPPC11 (UniProt Q7Z392),inactive: 0.046
13,TOMM40L (UniProt Q969M1),inactive: -0.036
14,TOP2A isoform 4 (UniProt P11388),inactive: 0.234
15,TPM1 (UniProt H7BYY1),inactive: 0.002
16,TSEN15 (UniProt Q8WW01),inactive: 0.069

# Compound: CCCS(=O)(=O)Nc1ccc(F)c(C(=O)c2c[nH]c3ncc(-c4ccc(Cl)cc4)cc23)c1F [vemurafenib]
# Assay: as above
# How it was run: as §1
row,Target,log2 fold change
1,TOMM20 (UniProt Q15388),inactive: -0.024
2,TSEN34 (UniProt Q9BSV6),inactive: -0.026
3,TSC22D4 (UniProt Q9Y3Q8),inactive: -0.02
4,TOP1 (UniProt P11387),inactive: -0.202
5,TRIP13 (UniProt Q15645),inactive: 0.029
6,TOP3B (UniProt O95985),inactive: -0.033
7,TRIM4 (UniProt Q9C037),inactive: -0.297
8,TPM3 isoform 4 (UniProt P06753),inactive: -0.05
9,TPP2 (UniProt P29144),inactive: -0.088
10,TOMM40 (UniProt O96008),inactive: 0.001
11,TRAPPC8 (UniProt Q9Y2L5),inactive: 0.026
12,TOR2A (UniProt Q5JU69),inactive: 0.179
13,TRIAP1 (UniProt O43715),inactive: 0.065
14,TRIP11 (UniProt Q15643),inactive: 0.026
15,TRIP6 (UniProt Q15654),inactive: -0.001
16,TP53RK (UniProt Q96S44),inactive: 0.011
17,TOR1AIP2 (UniProt Q8NFQ8),inactive: -0.018

row,Target,log2 fold change
1,TOE1 (UniProt Q96GM8),inactive: -0.016
2,"TPM4, A0A2R8Y5V9",inactive: -0.011
3,TRIM11 (UniProt Q96F44),inactive: 0.014
4,TRMT6 (UniProt Q9UJA5),inactive: -0.064
5,TOM1 isoform 2 (UniProt O60784),inactive: 0.17
6,TP53I3 (UniProt Q53FA7),inactive: -0.013
7,TPP2 (UniProt Q5VZU9),inactive: -0.181
8,TRNT1 (UniProt Q96Q11),inactive: 0.04
9,TPM1 isoform 4 (UniProt P09493),inactive: -0.017
10,TOMM34 (UniProt Q15785),inactive: 0.082
11,TPM2 (UniProt P07951),inactive: 0.03
12,TRAPPC11 (UniProt Q7Z392),inactive: 0.033
13,TOMM40L (UniProt Q969M1),inactive: 0.082
14,TOP2A isoform 4 (UniProt P11388),inactive: -0.213
15,TPM1 (UniProt H7BYY1),inactive: -0.074
16,TSEN15 (UniProt Q8WW01),inactive: -0.06
